Results: publication PMC9269301, “Phytochemical Analysis, Antioxidant, Antimicrobial, and Cytotoxic Activity of Different Extracts of Xanthoparmelia stenophylla Lichen from Stara Planina, Serbia” (Plants, 2022)

Tests used:
[1] = system: HeLa cells (cervical adenocarcinoma); assay: MTT assay; assay type: cell-based, human; conditions: IC50 MRC-5 / IC50 HeLa
[2] = system: HCT 116 cells (colon cancer); assay: MTT assay; assay type: cell-based, human

usnic acid
SI (selectivity index) ([1]; 24 h): 0.36 | SI (selectivity index) ([1]; 48 h): 0.41 | SI (selectivity index) ([1]; 72 h): 0.38 | SI (selectivity index) ([2]; IC50 MRC-5 / IC50 HCT 116, 24 h): 0.62 | SI (selectivity index) ([2]; IC50 MRC-5 / IC50 HCT 116, 48 h): 0.93 | SI (selectivity index) ([2]; IC50 MRC-5 / IC50 HCT 116, 72 h): 2.23
